Laboratory results: PubChem BioAssay AID651768 (National Center for Advancing Translational Sciences (NCATS), 2012)
The campaign covered roughly 360,000 compounds. About 1,700 (0.47%) were called active. Inconclusive results, whose numbers are uncertain, are shown with a selection of clear calls. Calls follow the shape of the dose curve; as a rule, active = well fitted inhibition curve with a large enough effect; inconclusive = small, poorly fitted or top-dose-only effect; inactive = no such curve, though single readings can be large or run the other way. Potencies of inconclusive entries are doubtful fits and often do not repeat.

Chains of the proteins cited; added tags and fusions are not shown.
UniProt Q14191, whole entry, looked up: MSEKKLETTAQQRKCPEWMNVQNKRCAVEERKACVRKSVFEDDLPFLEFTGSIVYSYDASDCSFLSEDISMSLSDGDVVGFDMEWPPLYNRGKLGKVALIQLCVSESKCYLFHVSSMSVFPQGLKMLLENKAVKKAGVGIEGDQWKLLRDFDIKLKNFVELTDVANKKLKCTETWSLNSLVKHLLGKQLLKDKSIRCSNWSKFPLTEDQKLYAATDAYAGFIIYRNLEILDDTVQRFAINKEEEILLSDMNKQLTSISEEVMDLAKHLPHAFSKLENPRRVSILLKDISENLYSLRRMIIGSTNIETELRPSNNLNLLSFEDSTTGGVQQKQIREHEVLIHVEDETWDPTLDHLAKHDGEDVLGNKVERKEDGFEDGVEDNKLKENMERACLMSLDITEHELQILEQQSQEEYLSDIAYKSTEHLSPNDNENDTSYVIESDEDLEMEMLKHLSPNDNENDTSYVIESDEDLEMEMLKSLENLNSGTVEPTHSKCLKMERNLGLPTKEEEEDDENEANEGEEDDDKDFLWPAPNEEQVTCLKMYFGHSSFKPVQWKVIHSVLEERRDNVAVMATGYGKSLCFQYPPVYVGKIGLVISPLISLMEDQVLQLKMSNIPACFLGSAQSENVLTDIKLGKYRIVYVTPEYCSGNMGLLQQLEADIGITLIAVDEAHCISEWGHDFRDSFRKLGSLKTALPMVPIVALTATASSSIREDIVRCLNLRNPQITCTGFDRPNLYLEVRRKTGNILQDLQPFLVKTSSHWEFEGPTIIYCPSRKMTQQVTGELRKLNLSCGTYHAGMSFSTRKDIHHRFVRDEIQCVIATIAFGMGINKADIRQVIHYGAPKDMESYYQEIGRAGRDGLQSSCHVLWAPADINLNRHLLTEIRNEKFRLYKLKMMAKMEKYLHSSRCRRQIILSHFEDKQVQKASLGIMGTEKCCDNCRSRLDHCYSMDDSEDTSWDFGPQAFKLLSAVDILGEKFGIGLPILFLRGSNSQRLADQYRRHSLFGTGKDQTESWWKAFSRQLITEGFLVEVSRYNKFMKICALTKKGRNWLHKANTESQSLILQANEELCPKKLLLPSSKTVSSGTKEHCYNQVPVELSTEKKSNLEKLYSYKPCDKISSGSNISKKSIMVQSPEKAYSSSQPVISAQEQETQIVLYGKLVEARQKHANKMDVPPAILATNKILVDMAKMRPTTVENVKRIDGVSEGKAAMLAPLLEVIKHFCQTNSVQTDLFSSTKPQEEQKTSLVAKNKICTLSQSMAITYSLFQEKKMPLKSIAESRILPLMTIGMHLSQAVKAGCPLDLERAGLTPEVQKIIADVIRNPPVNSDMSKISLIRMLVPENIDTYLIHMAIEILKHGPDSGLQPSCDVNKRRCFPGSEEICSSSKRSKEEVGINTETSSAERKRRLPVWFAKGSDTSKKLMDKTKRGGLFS

Target: Bifunctional 3'-5' exonuclease/ATP-dependent helicase WRN (Homo sapiens) (UniProt Q14191)
Assay: qHTS for Inhibitors of WRN Helicase; also: nearly all actives have a fitted effect of over 55% in size
Conditions: WRN helicase unwinding, fluorescent forked duplex, kinetic; activity change, negative = inhibition: at 114 µM (top of the series) unless noted
Outline: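 Enzyme (20 nM final) and test compound sit together 15 min at room temperature before substrate addition. Substrate is a single-forked duplex oligonucleotide (100 nM) labelled with fluorophore and quencher, with 2 mM ATP; helicase unwinding raises red fluorescence, read kinetically.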
% is scaled to controls: 0 for no effect and ±100 for the full control effect; potency is read from the fitted curve at half-maximal effect.

Question: Which Potency does the source give for `O=C(/C=C/c1ccc2c(c1)OCO2)c1ccc(O)cc1O` here?
Answer: inactive

Question: How did the Potency turn out when `O=C(O)c1ccccc1-c1ccc(/C=C/c2cc(C(F)(F)F)[nH]c(=O)n2)o1` was run?
Answer: active: 79.4 µM

Question: With `CCOC(=O)c1c(/N=C/C2=C(O)CCCC2=O)sc2c1CCCC2` as the compound, how does the Potency read?
Answer: inconclusive: 89.1 µM [inhibitor, single point]

Question: For `c1ccc(Nc2nc(-c3cccnc3)cs2)nc1`, which Potency is on record?
Answer: inconclusive: 17.8 µM [inhibitor, full curve, poor fit]

Question: With `O=C(Nc1nnc(-c2ccncc2)o1)c1ccccc1` as the compound, how does the Potency read?
Answer: inconclusive: 79.4 µM [inhibitor, single point]

Question: How did the Potency turn out when `COc1ccc(C2NC(=O)c3sc(=S)n(-c4ccccc4)c3N2)cc1` (stereo not drawn) was run?
Answer: inactive

Question: `CSc1ccccc1OCc1cc(C(=O)NC(C)Cc2cccc(C)n2)no1` (stereo not drawn) was tested. Which Potency did it give?
Answer: inconclusive: 70.8 µM [inhibitor, single point]

Question: Which Potency does the source give for `COc1cc(C)cc(C(=O)O)c1C1=C(O)c2cccc(O)c2C(=O)C1=O` here?
Answer: inconclusive: 79.4 µM [inhibitor, partial curve]

Question: `CC(C)n1cnc2cc(NC(=O)c3ccco3)ccc21` was tested. Which Potency did it give?
Answer: inconclusive: 89.1 µM [inhibitor, single point]

Question: How did the Potency turn out when `CCOc1ccc(S(=O)(=O)N(CC)CC)cc1NS(=O)(=O)c1ccc(F)c(F)c1F` was run?
Answer: inconclusive: 89.1 µM [inhibitor, single point]

Question: `C=CCN(Cc1cccc(OC)c1OC)C(=O)Oc1ccccc1` was tested. Which Potency did it give?
Answer: inactive

Question: With `C#CCOCCOCCOCCNc1nc(N2CCN(C(=O)CCCCCCCCCCNC(=O)[C@@H](CCSC)n3cc(CCO)nn3)CC2)nc(N2CCN(C(=O)CCCCCCCCCCNC(=O)[C@H]([C@@H](C)CC)n3cc(CCCCN=C(N)N)nn3)CC2)n1` as the compound, how does the Potency read?
Answer: inconclusive: 28.2 µM [inhibitor, single point]

Question: How did the Potency turn out when `O=C(O)c1ccc(Cl)c(S(=O)(=O)Nc2cccc(C(=O)Nc3cccc(C(F)(F)F)c3)c2)c1` was run?
Answer: inconclusive: 89.1 µM [inhibitor, single point]

Question: Which Potency does the source give for `CC(=O)c1cccc(NC(=O)c2cccc(N3C(=O)c4ccccc4C3=O)c2)c1` here?
Answer: inconclusive: 44.7 µM [inhibitor, partial curve]

Question: `NC(=O)[C@@H]1[C@@H]2C(=O)N(c3ccc(F)cc3)C(=O)[C@@H]2[C@H]2C=Cc3ccccc3N21` was tested. Which Potency did it give?
Answer: inconclusive: 7.08 µM [inhibitor, full curve, poor fit]

Question: With `S=C(c1ccc(Br)cc1)N1CCN(Cc2ccccc2)CC1` as the compound, how does the Potency read?
Answer: inactive

Question: How did the Potency turn out when `Cc1ccccc1/C=C/c1nc2ccccc2c(=O)[nH]1` was run?
Answer: inconclusive: 50.1 µM [inhibitor, partial curve]

Question: `CCOc1ccc2[nH]c(=O)c(CN(Cc3ccco3)C(=O)c3ccc(Br)cc3)cc2c1` was tested. Which Potency did it give?
Answer: inconclusive: 100 µM [inhibitor, single point]

Question: With `CCOc1ccccc1-n1c(C)cc(C=O)c1C` as the compound, how does the Potency read?
Answer: inactive

Question: Which Potency does the source give for `Oc1ccc(O)c(Cc2nc3ccccc3[nH]2)c1` here?
Answer: active: 89.1 µM

Question: Which Potency does the source give for `Cc1cc(Cl)ccc1N=c1ssnc1Cl` here?
Answer: active: 50.1 µM

Question: Which activity change, negative = inhibition does the source give for `CC1Cc2ccccc2N1Cc1nc2cc(Cl)ccc2c(=O)[nH]1` (stereo not drawn) here?
Answer: inconclusive: -39.2% [inhibitor] [at 57.1 µM]

Question: For `CCOC(=O)c1sc(N)c(C(=O)Nc2ccccc2)c1C`, which Potency is on record?
Answer: inactive

Question: Which Potency does the source give for `COc1ccccc1N1CCN(C(=O)c2ccccc2NC(=O)C2CCCCC2C(=O)O)CC1` (stereo not drawn) here?
Answer: inconclusive: 25.1 µM [inhibitor, single point]

Question: How did the Potency turn out when `CC(=O)OCCCNc1cc(Sc2ccc(C)cc2)c2nonc2c1[N+](=O)[O-]` was run?
Answer: active: 39.8 µM

Question: Which Potency does the source give for `CC(C)n1c(=O)[nH][nH]c1=S` here?
Answer: active: 56.2 µM

Question: Which Potency does the source give for `O=C(Nc1ccc(F)cc1)C1CCN(S(=O)(=O)c2cccc3nonc23)CC1` here?
Answer: inactive

Question: How did the Potency turn out when `CS(=O)(=O)c1ccc2c(c1)sc1nc(=O)c(/C=C3/C=CC(=O)C(O)=C3)c(N)n12` was run?
Answer: active: 28.2 µM

Question: Which Potency does the source give for `CCOC(=O)c1nc2sc(C)c(C)c2c(=O)[nH]1` here?
Answer: inactive

Question: How did the Potency turn out when `COc1ccccc1NC(=O)c1cc2ccc(O)cc2o/c1=N\O` was run?
Answer: inconclusive: 39.8 µM [inhibitor, partial curve]

Question: With `O=C1C(O)=CC(=C(c2ccccc2)c2ccccc2)c2ccccc21` as the compound, how does the Potency read?
Answer: inconclusive: 44.7 µM [inhibitor, partial curve]

Question: `Cc1ccc(NC2=C(Cl)C(=O)OC2OC(=O)c2ccc(C)cc2)cc1` (stereo not drawn) was tested. Which Potency did it give?
Answer: inconclusive: 79.4 µM [inhibitor, partial curve]

Question: How did the Potency turn out when `Nc1ccc2nc(-c3cccc(-c4nc5ccc(N)cc5[nH]4)c3)[nH]c2c1` was run?
Answer: active: 39.8 µM

Question: `CC1(C)CC[C@]2(C(=O)O)CC[C@]3(C)C(=CC[C@@H]4[C@@]5(C)CC[C@H](O[C@@H]6O[C@H](C(=O)O)[C@@H](O)[C@H](O[C@@H]7OC[C@H](O)[C@H](O)[C@H]7O)[C@H]6O)C(C)(C)[C@@H]5CC[C@]43C)[C@@H]2C1` was tested. Which activity change, negative = inhibition did it give?
Answer: inactive: -5.6% [at 11.6 µM]

Question: `COc1cccc(N(CC(=O)NC2CCCCC2)C(=O)c2snc(C(N)=O)c2N)c1` was tested. Which Potency did it give?
Answer: inconclusive: 10 µM [inhibitor, partial curve]

Question: `Cc1ccc(S(=O)(=O)Nc2nc3ccccc3nc2Nc2cccc(S(=O)(=O)N3CCCC3)c2)cc1` was tested. Which Potency did it give?
Answer: inconclusive: 2.82 µM [inhibitor, full curve, poor fit]

Question: For `Cc1nc(SCC(=O)O)c(C#N)c2c1CCCC2`, which Potency is on record?
Answer: active: 44.7 µM

Question: Which Potency does the source give for `CC(=O)Nc1ccc(S(=O)(=O)NC(C)(C#N)C2CC2)cc1` (stereo not drawn) here?
Answer: inactive

Question: With `Cc1ccccc1S(=O)(=O)N1[C@@H](c2ccccc2)C(C(=O)O)=CC[C@H]1c1ccc(Cl)cc1` as the compound, how does the Potency read?
Answer: inactive

Question: For `COc1ccc(CNC(=O)CSc2nnc3c(n2)[nH]c2ccc(F)cc23)cc1`, which Potency is on record?
Answer: inconclusive: 89.1 µM [inhibitor, single point]

Question: For `Cc1cc(NS(=O)(=O)c2ccc(NC(=O)COc3ccc(C#N)cc3)cc2)nc(C)n1`, which Potency is on record?
Answer: inconclusive: 31.6 µM [inhibitor, full curve]

Question: For `CC(=O)c1ccc(S(=O)(=O)NCCc2csc(-c3cccnc3)n2)cc1`, which Potency is on record?
Answer: inconclusive: 50.1 µM [inhibitor, partial curve]

Question: How did the Potency turn out when `S=C(Nc1ccccn1)c1ccccn1` was run?
Answer: inconclusive: 56.2 µM [inhibitor, partial curve]
